By UniProt entry, the sequences of proteins in these tests, tags left out. Where a name states a change or a piece, a line headed by the entry shows the natural chain unless it says otherwise.
UniProt Q06330: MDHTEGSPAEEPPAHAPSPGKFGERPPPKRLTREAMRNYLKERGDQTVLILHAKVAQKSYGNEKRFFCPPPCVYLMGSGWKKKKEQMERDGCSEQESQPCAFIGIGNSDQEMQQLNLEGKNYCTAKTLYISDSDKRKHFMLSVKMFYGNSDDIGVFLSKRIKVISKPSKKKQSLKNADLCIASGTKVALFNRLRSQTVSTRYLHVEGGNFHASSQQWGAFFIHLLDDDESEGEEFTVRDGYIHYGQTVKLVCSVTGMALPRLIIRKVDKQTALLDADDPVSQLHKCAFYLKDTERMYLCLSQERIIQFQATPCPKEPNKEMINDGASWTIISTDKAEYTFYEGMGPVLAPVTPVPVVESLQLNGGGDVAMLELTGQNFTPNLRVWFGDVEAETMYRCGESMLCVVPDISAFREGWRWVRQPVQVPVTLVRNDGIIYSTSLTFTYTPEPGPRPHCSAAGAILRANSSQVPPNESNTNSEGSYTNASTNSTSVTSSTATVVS
UniProt O75461: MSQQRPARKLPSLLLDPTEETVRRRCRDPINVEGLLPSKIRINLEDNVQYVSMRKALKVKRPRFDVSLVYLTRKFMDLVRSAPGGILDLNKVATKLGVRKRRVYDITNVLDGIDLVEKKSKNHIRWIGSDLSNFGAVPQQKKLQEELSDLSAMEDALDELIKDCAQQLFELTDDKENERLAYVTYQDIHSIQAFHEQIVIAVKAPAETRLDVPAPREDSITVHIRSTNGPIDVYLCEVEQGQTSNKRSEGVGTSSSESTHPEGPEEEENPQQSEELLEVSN
UniProt Q8IWI9: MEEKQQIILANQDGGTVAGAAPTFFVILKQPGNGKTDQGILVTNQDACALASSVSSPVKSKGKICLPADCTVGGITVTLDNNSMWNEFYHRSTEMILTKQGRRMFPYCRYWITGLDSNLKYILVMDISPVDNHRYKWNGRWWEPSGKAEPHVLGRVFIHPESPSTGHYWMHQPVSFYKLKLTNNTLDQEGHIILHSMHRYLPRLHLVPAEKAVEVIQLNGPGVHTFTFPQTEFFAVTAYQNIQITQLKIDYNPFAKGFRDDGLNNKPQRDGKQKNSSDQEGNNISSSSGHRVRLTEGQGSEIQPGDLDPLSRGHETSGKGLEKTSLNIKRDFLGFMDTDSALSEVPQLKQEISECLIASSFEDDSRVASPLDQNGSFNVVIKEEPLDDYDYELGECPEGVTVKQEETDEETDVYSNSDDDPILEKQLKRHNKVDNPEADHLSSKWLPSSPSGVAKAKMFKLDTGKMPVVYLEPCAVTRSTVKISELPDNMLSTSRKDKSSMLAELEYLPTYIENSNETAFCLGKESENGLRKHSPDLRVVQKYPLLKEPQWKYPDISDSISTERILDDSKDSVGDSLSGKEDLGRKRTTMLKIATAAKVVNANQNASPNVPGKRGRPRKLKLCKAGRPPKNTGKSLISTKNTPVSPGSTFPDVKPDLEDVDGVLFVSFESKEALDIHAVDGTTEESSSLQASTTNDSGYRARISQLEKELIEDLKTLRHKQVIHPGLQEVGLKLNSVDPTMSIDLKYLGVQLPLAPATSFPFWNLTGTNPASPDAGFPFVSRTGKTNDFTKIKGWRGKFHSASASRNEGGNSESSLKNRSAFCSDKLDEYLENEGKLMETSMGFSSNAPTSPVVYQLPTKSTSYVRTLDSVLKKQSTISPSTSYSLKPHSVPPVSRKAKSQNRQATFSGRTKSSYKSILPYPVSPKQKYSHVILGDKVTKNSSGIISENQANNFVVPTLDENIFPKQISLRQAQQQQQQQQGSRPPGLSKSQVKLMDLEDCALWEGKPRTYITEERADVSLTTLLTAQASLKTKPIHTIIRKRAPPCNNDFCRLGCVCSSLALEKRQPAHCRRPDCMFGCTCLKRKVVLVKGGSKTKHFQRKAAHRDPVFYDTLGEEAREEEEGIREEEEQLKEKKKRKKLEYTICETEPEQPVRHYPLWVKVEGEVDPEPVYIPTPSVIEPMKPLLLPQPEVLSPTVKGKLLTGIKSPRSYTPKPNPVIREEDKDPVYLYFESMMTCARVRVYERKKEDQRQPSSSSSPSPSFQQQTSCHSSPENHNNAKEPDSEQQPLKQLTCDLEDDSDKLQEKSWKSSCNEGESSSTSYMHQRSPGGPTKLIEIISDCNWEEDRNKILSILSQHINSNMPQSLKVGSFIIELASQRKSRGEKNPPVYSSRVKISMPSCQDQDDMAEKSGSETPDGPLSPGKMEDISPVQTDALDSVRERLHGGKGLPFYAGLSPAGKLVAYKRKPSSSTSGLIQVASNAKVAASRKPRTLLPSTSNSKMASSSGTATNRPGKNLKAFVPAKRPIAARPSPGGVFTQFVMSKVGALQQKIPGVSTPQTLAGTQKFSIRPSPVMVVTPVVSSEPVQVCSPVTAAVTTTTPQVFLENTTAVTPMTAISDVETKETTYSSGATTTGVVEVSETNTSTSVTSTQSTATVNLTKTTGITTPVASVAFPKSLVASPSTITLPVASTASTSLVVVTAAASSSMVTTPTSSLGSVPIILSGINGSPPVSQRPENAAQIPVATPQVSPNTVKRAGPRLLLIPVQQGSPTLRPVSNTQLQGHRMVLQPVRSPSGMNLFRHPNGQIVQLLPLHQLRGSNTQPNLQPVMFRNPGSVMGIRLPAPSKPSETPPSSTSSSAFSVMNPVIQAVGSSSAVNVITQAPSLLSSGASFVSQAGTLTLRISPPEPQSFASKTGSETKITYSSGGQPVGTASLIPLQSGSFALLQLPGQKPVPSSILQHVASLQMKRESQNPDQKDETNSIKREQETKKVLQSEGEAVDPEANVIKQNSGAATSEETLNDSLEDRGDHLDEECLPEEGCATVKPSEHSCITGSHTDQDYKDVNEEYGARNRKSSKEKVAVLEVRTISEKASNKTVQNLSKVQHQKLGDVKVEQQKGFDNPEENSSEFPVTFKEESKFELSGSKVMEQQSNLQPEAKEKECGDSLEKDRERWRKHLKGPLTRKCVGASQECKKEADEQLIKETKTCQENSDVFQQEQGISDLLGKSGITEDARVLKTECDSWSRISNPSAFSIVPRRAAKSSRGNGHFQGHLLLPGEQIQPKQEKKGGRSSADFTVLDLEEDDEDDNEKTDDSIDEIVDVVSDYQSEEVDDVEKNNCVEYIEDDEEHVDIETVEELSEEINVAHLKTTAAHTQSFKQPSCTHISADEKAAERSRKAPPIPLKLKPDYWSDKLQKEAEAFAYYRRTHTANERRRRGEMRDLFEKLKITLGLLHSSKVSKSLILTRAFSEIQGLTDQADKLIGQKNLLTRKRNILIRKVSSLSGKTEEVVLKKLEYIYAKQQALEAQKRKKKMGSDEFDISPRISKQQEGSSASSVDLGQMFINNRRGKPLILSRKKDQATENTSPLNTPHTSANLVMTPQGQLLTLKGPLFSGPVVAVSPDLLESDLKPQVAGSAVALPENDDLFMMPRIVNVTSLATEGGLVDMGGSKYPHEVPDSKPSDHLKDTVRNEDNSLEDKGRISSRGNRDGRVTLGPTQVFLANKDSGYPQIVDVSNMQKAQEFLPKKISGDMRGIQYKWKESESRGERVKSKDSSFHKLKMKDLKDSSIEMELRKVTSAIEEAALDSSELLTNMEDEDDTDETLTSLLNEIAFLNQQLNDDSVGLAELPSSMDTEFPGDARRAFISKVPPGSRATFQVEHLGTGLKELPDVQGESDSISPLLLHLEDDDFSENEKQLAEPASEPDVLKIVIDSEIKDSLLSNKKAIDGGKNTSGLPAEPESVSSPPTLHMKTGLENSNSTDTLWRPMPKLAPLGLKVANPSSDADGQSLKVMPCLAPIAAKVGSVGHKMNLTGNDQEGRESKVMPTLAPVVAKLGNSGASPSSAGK
UniProt Q969R5: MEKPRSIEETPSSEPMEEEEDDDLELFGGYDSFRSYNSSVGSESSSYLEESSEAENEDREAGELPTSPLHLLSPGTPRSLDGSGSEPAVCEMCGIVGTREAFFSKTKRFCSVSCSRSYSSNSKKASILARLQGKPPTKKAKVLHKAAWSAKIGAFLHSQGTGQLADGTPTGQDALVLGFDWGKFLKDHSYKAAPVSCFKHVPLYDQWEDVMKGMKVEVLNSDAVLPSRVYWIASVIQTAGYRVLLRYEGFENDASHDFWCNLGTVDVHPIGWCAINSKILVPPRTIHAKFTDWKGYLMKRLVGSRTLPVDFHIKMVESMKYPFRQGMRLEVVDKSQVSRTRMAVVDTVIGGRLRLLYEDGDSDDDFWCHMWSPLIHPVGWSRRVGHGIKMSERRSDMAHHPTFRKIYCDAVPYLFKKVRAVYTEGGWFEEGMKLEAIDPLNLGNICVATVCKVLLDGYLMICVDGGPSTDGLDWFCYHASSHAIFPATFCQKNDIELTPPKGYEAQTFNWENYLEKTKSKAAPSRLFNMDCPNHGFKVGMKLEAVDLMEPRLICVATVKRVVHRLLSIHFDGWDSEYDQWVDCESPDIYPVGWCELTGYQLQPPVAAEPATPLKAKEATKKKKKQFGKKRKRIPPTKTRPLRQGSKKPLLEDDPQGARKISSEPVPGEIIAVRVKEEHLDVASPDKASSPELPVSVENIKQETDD

In article PMC8325870, “SUMOylated non-canonical polycomb PRC1.6 complex as a prerequisite for recruitment of transcription factor RBPJ”:

B1: RITA (RBPJ Interacting and tubulin associated) (protein, UniProt Q96K30 1-269)
chain: MKTPVELAVSGMQTLGLQHRCRGGYRVKARTSYVDETLFGSPAGTRPTPPDFDPPWVEKANRTRGVGKEASKALGAKGSCETTPSRGSTPTLTPRKKNKYRPISHTPSYCDESLFGSRSEGASFGAPRMAKGDAAKLRALLWTPPPTPRGSHSPRPREAPLRAIHPAGPSKTEPGPAADSQKLSMGGLHSSRPLKRGLSHSLTHLNVPSTGHPATSAPHTNGPQDLRPSTSGVTFRSPLVTSRARSVSISVPSTPRRGGATQKPKPPWK

Each molecule was assayed against Flag-HA-tagged human RBPJ (human) (UniProt Q06330) (assay: affinity purification with mass spectrometry; Flag-HA-RBPJ complexes from HeLa-S nuclear extract (salt extraction), dialysed with or without a double-stranded oligonucleotide with two RBPJ sites (2 µg) and a mutated oligonucleotide (16 µg); anti-Flag (M2) agarose in TAP buffer (50 mM Tris-HCl pH 7.9, 100 mM KCl, 5 mM MgCl2, 10% glycerol, 0.1% NP-40, 1 mM DTT) 4 h, 4 °C; eluted with Flag peptides; LC-MS/MS).

binding	Molecule
binds	E2F6 (E2F Transcription Factor 6) (from UniProt O75461 1-281)
binds	MGA (MAX gene associated) (from UniProt Q8IWI9 1-3065)
binds	NOTCH2 (from UniProt Q04721)
binds	B1

Molecule	binding
L3MBTL2 (Lethal (3) malignant brain tumor-like protein 2), endogenous in HeLa-S (from UniProt Q969R5 1-705)	binds

No constants are given. Whether binding was seen depends on the method and setting. Binding seen in cells or lysates may run through a third protein. These calls come from enrichment with a bait or labelling near it, and not all partners need be listed.
